According to paper PMC12741742:
These are yes or no findings as the source states them, for the method shown.

Molecular target: brazzein (recombinant, produced in Trichoderma reesei, with N-terminal pyroglutamic acid) (Pentadiplandra brazzeana)
Experiment: dynamic light scattering; brazzein in water, 2 mg/mL, 20 °C at the start of the thermal ramp, 173° backscattering; sample stored 24 months at 4-8 °C before analysis; both purified

B1: brazzein (recombinant, produced in Trichoderma reesei, with N-terminal pyroglutamic acid) (protein)
chain: QDKCKKVYENYPVSKCQLANQCNYDCKLDKHARSGECFYDEKRNLQCICDYCEY
modifications: N-terminal pyroglutamic acid (pQ1); four disulfide bonds
binding: no binding (tested: 2 mg/mL)
